Publication PMC12221285
No constants are given. Whether binding was seen depends on the method and setting. In cells and extracts the contact can be indirect. A yes stands for co-enrichment or nearness to the bait. Other partners may have been found. Sequences can lack the tags named with a protein.

Columns and labels:
[1] = target: T1, USP18A (from the untagged USP18 construct) (human) (UniProt Q9UMW8); assay: affinity purification with mass spectrometry; bands of the two USP18 isoforms cut from the anti-FLAG (6HF-ISG15) immunoprecipitate, in-gel trypsin digest, LC-MS/MS; matching gel areas of the USP18-only sample as negative control
T1 sequence: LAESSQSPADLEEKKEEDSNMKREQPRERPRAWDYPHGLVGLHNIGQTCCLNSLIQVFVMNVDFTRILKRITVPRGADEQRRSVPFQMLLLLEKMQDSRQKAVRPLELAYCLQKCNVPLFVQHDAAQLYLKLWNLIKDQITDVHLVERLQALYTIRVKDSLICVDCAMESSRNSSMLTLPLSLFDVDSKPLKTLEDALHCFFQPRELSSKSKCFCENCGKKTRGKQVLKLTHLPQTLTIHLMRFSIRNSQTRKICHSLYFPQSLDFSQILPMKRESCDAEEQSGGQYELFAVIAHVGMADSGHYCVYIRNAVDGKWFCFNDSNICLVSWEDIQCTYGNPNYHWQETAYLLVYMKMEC

[2] = target: T2, USP18B (from the untagged USP18 construct) (human) (UniProt Q9UMW8); assay: as above
T2 sequence: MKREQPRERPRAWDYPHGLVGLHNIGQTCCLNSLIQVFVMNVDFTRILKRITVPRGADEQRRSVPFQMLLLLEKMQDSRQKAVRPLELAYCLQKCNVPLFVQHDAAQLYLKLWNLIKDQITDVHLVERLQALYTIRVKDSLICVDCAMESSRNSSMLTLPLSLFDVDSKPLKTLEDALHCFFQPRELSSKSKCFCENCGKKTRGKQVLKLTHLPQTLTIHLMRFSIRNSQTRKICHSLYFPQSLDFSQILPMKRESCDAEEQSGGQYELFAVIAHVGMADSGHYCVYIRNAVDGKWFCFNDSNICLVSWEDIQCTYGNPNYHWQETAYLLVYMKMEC

USP41 (found by mass spectrometry in the ISG15 immunoprecipitates) (human (endogenous in HEK-293T))
binding [1]: binds | binding [2]: binds
